No constants are given. Whether binding was seen depends on the method and setting. A result given as binding can be weak or reduced; the word gives no strength. Sequences can lack the tags named with a protein.
Target: T1, FtsX fused to the T18 or T25 domain of Bordetella adenylate cyclase (B. subtilis) (UniProt O34876)
T1 sequence: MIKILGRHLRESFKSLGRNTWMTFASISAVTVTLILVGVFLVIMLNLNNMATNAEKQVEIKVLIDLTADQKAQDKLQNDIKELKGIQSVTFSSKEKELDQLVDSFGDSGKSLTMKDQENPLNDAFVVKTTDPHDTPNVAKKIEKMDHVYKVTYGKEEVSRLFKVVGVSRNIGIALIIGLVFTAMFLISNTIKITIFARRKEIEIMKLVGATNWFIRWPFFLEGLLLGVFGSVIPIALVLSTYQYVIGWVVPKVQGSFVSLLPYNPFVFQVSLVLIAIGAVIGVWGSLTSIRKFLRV
Assay: two-hybrid; bacterial adenylate cyclase two-hybrid (BACTH); T18 and T25 fusions co-transformed into E. coli BTH101; spotted on LB agar with IPTG (0.25 mM) and X-Gal, 30°C, 16 hours

Sequences of proteins named here, by UniProt entry; tags and fusion partners are left off. A change or cut given only in a name is not applied to a line headed by its entry.
UniProt O32022: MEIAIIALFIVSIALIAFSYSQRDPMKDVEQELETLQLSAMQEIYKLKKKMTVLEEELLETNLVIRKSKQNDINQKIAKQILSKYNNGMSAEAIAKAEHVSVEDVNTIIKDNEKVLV

Row | Substance | binding
1 | SweD lacking its entire intracellular domain [SweD(TM)], BACTH fusion (B. subtilis) (domain or fragment) | binds
2 | SweD lacking its putative coiled-coil domain (SweDΔCC), BACTH fusion (from UniProt O32022) | binds
